Results are given in words; binding and its absence hold for the method and conditions named. In cells and extracts the contact can be indirect. A yes stands for co-enrichment or nearness to the bait. Other partners may have been found. Tags and fused reporters may be left off the sequences shown.
T1: Centrosomal protein of 78 kDa (Cep78), endogenous mouse testicular protein (mouse (endogenous in testis)) (UniProt Q6IRU7)
T1 sequence: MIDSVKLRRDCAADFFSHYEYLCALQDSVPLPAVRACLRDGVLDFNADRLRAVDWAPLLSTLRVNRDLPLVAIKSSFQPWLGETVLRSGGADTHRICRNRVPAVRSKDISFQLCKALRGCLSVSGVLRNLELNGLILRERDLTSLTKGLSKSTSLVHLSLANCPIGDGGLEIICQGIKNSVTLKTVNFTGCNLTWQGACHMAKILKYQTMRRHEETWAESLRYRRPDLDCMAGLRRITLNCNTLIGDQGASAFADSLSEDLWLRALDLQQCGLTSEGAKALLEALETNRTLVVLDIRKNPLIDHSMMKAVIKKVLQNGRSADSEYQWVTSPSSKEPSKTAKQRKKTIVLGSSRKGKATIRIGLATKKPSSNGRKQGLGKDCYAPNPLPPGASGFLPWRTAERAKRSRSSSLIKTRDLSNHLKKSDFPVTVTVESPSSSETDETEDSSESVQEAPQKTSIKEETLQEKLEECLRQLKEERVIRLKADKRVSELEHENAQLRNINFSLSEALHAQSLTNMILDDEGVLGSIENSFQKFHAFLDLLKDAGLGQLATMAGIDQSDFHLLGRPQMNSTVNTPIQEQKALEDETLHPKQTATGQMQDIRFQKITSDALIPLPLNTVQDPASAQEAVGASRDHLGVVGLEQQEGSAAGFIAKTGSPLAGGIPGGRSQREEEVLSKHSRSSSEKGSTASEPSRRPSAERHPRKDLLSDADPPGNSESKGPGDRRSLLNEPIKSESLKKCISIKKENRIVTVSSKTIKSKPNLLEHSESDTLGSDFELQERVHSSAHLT

B1: Armadillo repeat-containing protein 4 (protein, UniProt B2RY50 1-1037)
chain: MGVALTRLAQWTAAGYETGTLEITPLNESILNEITKFVESFSYKYPQEAKFVFVEPLEWKTYLEPSAFELGYVVSATTAESEETGKDGQPLLFLSVPYIKVRSFGQLSQLLSIATDSKLQEAQACIEANRDPVVKILGPDYNEMKEDPTRLTLLDTIIKDKETYMKRKVAILLKQLDLHLLNHSLKYISLEISLNPGTFKKDIELLKRFSGKGEQTVLESIEYTSDYEFSNGCRAPPWRQIQGEICYVLVKPHDMETLCLTCSTEGVFLNGGKTEEEGEINYERKGEIYKDLVTCLKDKSPVFSENMSKHEIRFTEEQQKDNQIFEKPKTEDGHSSVAGSEKSKIEKISFGKSPMTKRLEPSLNWRVTVDYKDHKSSIKDSQEEKQGKLEKSSSVSVAPSRAQSHRKGGEKVEETVSESSSESEEDEEPPDHRQEANADLPSEYWQIQKLVKYLKGGNQTATVIALCSMRDFNLAQETCQLAIRDVGGLEVLINLLDTDEVKCKIGSLKILKEISHNPQIRRNIVDLGGLPIMVNILDSPHKSLKCLSAETIANVAKFKRARRAVRQHGGITKLVALLDCGQNSTEPTQPSLYETRDVEVARCGALALWSCSKSHSNKEAIRKAGGIPLLARLLKTSHENMLIPVVGTLQECASEENYRAAIKAERIIENLVKNLNSENEQLQEHCAMAIYQCAEDEETRDLVRLHGGLKPLASLLNNTDNKERLAAVTGAIWKCSISKENVIKFREYKAIETLVGLLTDQPEEVLVNVVGALGECCQEYENRVLVRKCGGIQPLVNLLVGINQALLVNVTKAVGACAVEPESMAIIDRLDGVRLLWSLLKNPHPDVKASAAWALCPCIENAKDAGEMVRSFVGGLELVVNLLKSDNKEVLASVCAAITNIAKDQENLAVITDHGVVPLLSKLANTNNDKLRRHLAEAISRCCMWGRNRVAFGEHKAVAPLVRYLKSNDTNVHRATAQALYQLSEDADNCITMHENGAVKLLLDMVGSPDQDLQEAAAGCISNIRRLALATEKARYN
B2: Cytoplasmic dynein 2 light intermediate chain 1 (protein, UniProt Q8K0T2 1-351)
chain: MPSETLWEIAKAEVEKRRSHGSEGDGAEIGEKSVFFIGSKNGGKTTIILRCLDRDESAKPTLALEYTYGRKTKGHNTPKDIAHFWELGGGTSLLDLISIPITVDTLRTFSIVLVLDLSKPNDLWSTMENLLQATKSHVDKVIMKLGKTSSKASAEMRQRMWSVVQKDHPDRELIDPFPIPLVIIGSKYDIFQDFDPEKRKVICKTLRFVAHYYGASLMFTSKSEALLLKIRGVINQLAFGIDKSKSICVDQNKPLFITAGLDSLCQIGSPPVPDSDIGKLQAHSPMELWKKVYDKLFPPKSTGTLKAVQDPARDPQYAESEVDEMRVQKDQELEHYKRSSSKTWKQIELDS
B3: TRAF3-interacting protein 1 (protein, UniProt Q149C2 1-625)
chain: MNAAVVRRTQEALGKVIRRPPLTEKLLNKPPFRYLHDIITEVIRITGFMKGLYTDAEMKSENVKDKDAKISFLQKAIDVVMMVSGEPLAAKPARIVAGHEPERTNELLQLIGKCCLSKLSSDEAVKRVLAGDKGDSRGRAQRTSKAQEPNNKSGKEEESRIHKEDKRSSEAKERSASAEHKQKEELKEDSKPREKERDKEKAKEADRDRHRDPDRDRNRDGEREKARARAKDRDRNNRDRDREAERDRERDRRSEGGKEKERVKDRDRDRDKGRDRERRKSKNGEHTRDPDREKSRDADKPEKKSSSSGEISRKLSDGSFKDVKAEMEADISVGASRSSTLKPSKRRSKHSLEGDSPSDAEVEAGPAGQDKPEVMENAEVPSELPSSLRRIPRPGSARPAPPRVKRQESTETLVVDRSGSGKTVSSVIIDSQNSDNEDDEQFVVEAAPQLSEIADIDMVPSGELEDEEKHGGLVKKILETKKDYEKLQQSLKPGEKERSLIFESAWKKEKDIVSKEIEKLRVSIQTLCKSALPLGKIMDYIQEDVDAMQNELQLWHSENRQHAEALSQEQSITDSAVEPLKAELSELEQQIRDQQDKICAVKANILKNEEKIQKMVHSINLSSRR
B4: Centrosomal protein of 131 kDa (protein, UniProt Q62036 1-1060)
chain: MKGSRTITATPEGSPEAVDLSLIGLPPPMSQRPGSASATRSIFRSMSVATGSEPRKKALEATGPGGPRAINNLRRSNSTTQVNQSWTGSPRPAEPTDFLMLFEGSTSGRRRVASLSKASSEKEATWNVLDEQPRGLALPASAQSPSTLDSALGPRRKECPLAPSFTANNRSNKGAVGNCVTTMVHNHYASSKMVSPPKSSNQTAPSLNNIVKAAAREGGEGSDLGKPRKNLSSASQSARGTTGLLRRREVTEEEAERFIHQVNQAAVTIQRWYRCQVQRRRAGAAALEHLLASKREGQRQRLGGGNLLELHRQEEAARKKAREEKARQARQAAIQVLQQKRAQKASEAEHRRPKDRPETRAPEQPRPMQEPGCVTHPKANNAGASIYPTGPADPCPPASESSPEQWQSPEDKPQDIHSQGEARQDLAVSGSSRGKARARATLDDLLDTLKLLEEEPEPLPHPKAYHKDRYAWTDEEEDANSLTADNLEKFGKLSAAPGPPDDGTLLSEAKLQSIMTFLDEMEKSGQERPAPWRESLVLEAGSGSEGSTSVMRLKLELEEKKQAMALLQRALAQQRDLTVRRVKETEKELTRQLRQQKEQYEATIQRHLSFIDQLIEDKKVLSEKCEAVVAELKHGDQRCRERVAQMQEQHELEIKKLKELMSATEKIRREKWINEKTKKIKEITVRGLEPEIQKLIAKHKQEVRRLRGLHEAELQQREEQAAQRHLRQAEELRQHLDREREVLGQQERERAQQRFEQHLEQEQRALEQQRRRLYNEVAEEKERLGQQAARQRAELEELRQQLEESSAALTRALRAEFERSREEQERRHQMELKALKDQLEAERQAWVASCAKKEEAWLLTRERELKEEIRKGRDQEIELVIHRLEADMTLAKEESERAAESRVKRVRDKYETELSELEQSERKLQERCSELKGRLGEAEGEKERLQSLVRQKEKELEDLRAVNTQMCSERASLAQVVRQEFAEQLAASQEETQRVKVELAELQARQQVELDEVHRRVKTALARKEAAVNSLRKQHEAAVKRADHLEELLEQHKGSSLSSK
B5: Intraflagellar transport protein 25 homolog (protein, UniProt Q9D6H2 1-143)
chain: MRKVDLCSVTEGTEVILATSSDEKHPPENIIDGNPETFWTTTGMFPQEFIICFHKHVKIEKLVIQSYLVRTLRIEKTTSKEPLDFEQWVEKDLVHTEGQLQNEEIVARDGYATFLRFIIVSAFDHFASVHSISAEGLTVSSLP
B6: Intraflagellar transport protein 122 homolog (protein, UniProt Q6NWV3 1-1182)
chain: MRAVLTWRDKAEQCIYDLAFKPDGTQLILAAGNRLLVYDTSDGTLLQPLKGHKDTVYCVAYAKDGKRFASGSADKSIIIWTSKLEGILKYTHNDSIQCVSYNPVTHQLASCSSSDFGLWSPEQKSVSKHKSSSKITCCSWTNDGQYLALGMANGIISIRNKNGEEKVKIERPGGSLSPIWSICWNPSREEHNDILAVADWGQKLSFYQLSGKQIGKDRPLNFDPCCISYFTKGEYILVGGSDKQVSLFTKDGVRLGTVGEQNSWVWTCRVKPDSNYVVVGCQDGTISFYQLIFSTVHGLYKDRYAYRDSMTDVIVQHLITEQKVRIKCRELVKKIAIYKNRLAIQLPEKILIYELYSEDSTDMHYRVKEKIVKKFECNLLVVCADHIILCQEKRLQCLSFSGVKEREWQMESLIRYIKVIGGPAGREGLLVGLKNGQILKIFVDNLFAIVLLKQATAVRCLDMSASRNKLAVVDENDTCLVYDIHTKELLFQEPNANSVAWNTQCEDMLCFSGGGYLNIKASTFPVHQQKLQGFVVGYNGSKIFCLHVFSMSAVEVPQSAPMYQYLDRKMFKEAYQIACLGVTDADWRELAMEALEGLEFETARKAFTRVQDLRYLELISSIEERKKRGETNNDLFLADVFSYQGKFHEAAKLYKRSGHENLALDMYTDLCMFEYAKDFLGSGDPKETKMLITKQADWARNINEPKAAVEMYISAGEHAKAIEISGSHGWVDMLIDIARKLDKAEREPLLMCACYFKKLDSPGYAAETYLKIGDLKSLVQLYVDTKRWDEAFALGEKHPEFKDDVYVPYAQWLAENDRFEEAQKAFHKAGRQGEAVRVLEQLTHNAVVESRFNDAAYYYWMLSMQCLDMAQDPAQKDAMLDKFHHFQHLAELYHGYQTIHRYTEEPFSFDLPETLFNISKFLLHSLTKATPLGISKVNTLFTLAKQSKALGAYKLARHAYDKLRGLQIPARIQKSIELGTLTIRSKPFHDSEELVPLCYRCSTNNPLLNNLGNVCINCRQPFIFSASSYEVLHLVEFYLEEGITDEEAVALIDLEAPRHKREGKWRETSSNNSQTLKLDETMDSIGEDDPFTAKLSFEQGSSEFVPVVVNRSVLRSMSRRDVLIKRWPPPLQWQYFRSLLPDASITMCPSCFQMFHSEDYELLVLQHACCPYCRRRIDDTGP
B7: T-complex protein 1 subunit theta (protein, UniProt P42932 1-548)
chain: MALHVPKAPGFAQMLKDGAKHFSGLEEAVYRNIQACKELAQTTRTAYGPNGMNKMVINRLEKLFVTNDAATILRELEVQHPAAKMIVMASHMQEQEVGDGTNFVLVFAGALLELAEELLRIGLSVSEVISGYEIACKKAHEILPELVCCSAKNLRDVDEVSSLLRTSIMSKQYGSETFLAKLIAQACVSIFPDSGNFNVDNIRVCKILGSGIYSSSVLHGMVFKKETEGDVTSVKDAKIAVYSCPFDGMITETKGTVLIKTAEELMNFSKGEENLMDAQVKAIAGTGANVIVTGGKVADIALHYANKYNIMLVRLNSKWDLRRLCKTVGATALPKLTPPVQEEMGHCDSVYLSEVGDTQVVVFKHEKEDGAISTIVLRGSTDNLMDDIERAVDDGVNTFKVLTRDKRLVPGGGATEIELAKQITSYGETCPGLEQYAIKKFAEAFEAIPRALAENSGVKANEVISKLYSVHQEGNKNVGLDIEAEVPAVKDMLEASILDTYLGKYWAIKLATNAAVTVLRVDQIIMAKPAGGPKPPSGKKDWDDDQND

Each binder was assayed against T1, Centrosomal protein of 78 kDa (Cep78), endogenous mouse testicular protein (mouse (endogenous in testis)) (assay: affinity purification with mass spectrometry; anti-Cep78 (custom antibody against p457-741 of mouse Cep78) immunoprecipitation from testicular lysates of Cep78^+/− and Cep78^−/− mice, Pierce IP lysis buffer, Pierce co-IP kit, quantitative LC-MS of silver-stained gel lanes).

binding, binds:
B1
B2
B3
B4
B5
B6
B7

Reference: PMC9984195
